Data set [1] has as its system USF complexes (USF-1/USF-2) in HT29 nuclear extract (Homo sapiens). In words: EMSA. The settings on record: HT29 nuclear extract 2.5 ug; protein in an extract; label: 32P.
Data set [2] deals with USF-1 unphosphorylated (Homo sapiens) (UniProt P22415). In words: EMSA. The conditions noted are these: purified recombinant protein, protein details: N-terminal 6xHis (pProEX-HTb, E. coli). A general note: A gel shift assay detects complexes by their altered migration in electrophoresis.
Data set [3] has as its system USF complexes (USF-1/USF-2) in HT29 nuclear extract (Homo sapiens). In words: competition with a labelled probe. The settings on record: unlabeled competitor removes two USF bands; protein in an extract; label: 32P when used as probe.

Chains of the proteins cited; added tags and fusions are not shown. A change or cut given only in a name is not applied to a line headed by its entry. A line that says so, or that is headed by a name, gives the form on record, which may keep a tag or linker.
UniProt P22415: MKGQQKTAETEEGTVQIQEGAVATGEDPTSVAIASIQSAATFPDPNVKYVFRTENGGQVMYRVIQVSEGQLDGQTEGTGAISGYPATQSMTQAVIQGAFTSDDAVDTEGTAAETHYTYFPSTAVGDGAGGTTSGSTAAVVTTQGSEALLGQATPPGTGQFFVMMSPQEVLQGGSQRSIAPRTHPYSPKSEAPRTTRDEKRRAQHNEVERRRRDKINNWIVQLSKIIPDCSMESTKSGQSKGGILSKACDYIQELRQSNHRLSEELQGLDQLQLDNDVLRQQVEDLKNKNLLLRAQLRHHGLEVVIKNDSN
USF complexes (USF-1/USF-2) in HT29 nuclear extract (Homo sapiens), one chain, as listed by the source, chain 2 of 2: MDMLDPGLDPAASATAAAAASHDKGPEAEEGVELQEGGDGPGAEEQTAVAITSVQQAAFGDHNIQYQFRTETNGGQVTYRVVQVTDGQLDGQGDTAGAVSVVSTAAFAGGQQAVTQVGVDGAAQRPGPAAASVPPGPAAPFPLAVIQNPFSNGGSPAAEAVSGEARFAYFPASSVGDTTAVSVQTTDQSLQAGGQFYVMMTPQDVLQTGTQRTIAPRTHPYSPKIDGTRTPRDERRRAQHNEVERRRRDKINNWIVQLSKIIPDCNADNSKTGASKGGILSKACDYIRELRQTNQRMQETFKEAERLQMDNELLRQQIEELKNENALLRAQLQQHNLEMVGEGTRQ
USF complexes (USF-1/USF-2) in HT29 nuclear extract (Homo sapiens), one chain, as listed by the source, chain 1 of 2: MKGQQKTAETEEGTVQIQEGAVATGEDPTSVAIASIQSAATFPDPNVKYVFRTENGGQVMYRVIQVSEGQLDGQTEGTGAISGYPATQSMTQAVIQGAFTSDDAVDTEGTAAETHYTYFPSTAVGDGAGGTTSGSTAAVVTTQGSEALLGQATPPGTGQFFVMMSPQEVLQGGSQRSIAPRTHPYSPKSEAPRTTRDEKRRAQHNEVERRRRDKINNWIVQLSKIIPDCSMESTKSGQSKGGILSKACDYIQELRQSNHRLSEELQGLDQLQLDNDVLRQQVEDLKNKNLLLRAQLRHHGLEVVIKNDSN

For some of these results: Negatives hold for the conditions tested. For some of these results: Results from cells or extracts need not show a direct contact.

For “CCGCGCCACTTGGCCTGCCTCCGTCCCG (double strand) [TS wild-type tandem repeat (R)]”, the binding result in data set [1] is listed as “binds”; in data set [2] (only phosphorylated form binds, label: 32P) it was “no binding”.

For “CACCCGGTCACGTGGCCTACACC (double strand) [USF-1 consensus oligonucleotide]”, the binding result is reported as “no binding” in data set [2] (consensus probe, sequence taken from the listed USF-1 specific oligonucleotide, label: 32P when used as probe) and “binds” in data set [3].

The record behind these values is US20060051764.
